{"source": "patent US4427661A", "about": "“Fluorinated cyclic hexapeptide somatostatin analogs” (Merck & Co., Inc., priority 1982, dated 1984)", "key": {"[1]": {"tested_on": "growth hormone release", "experiment": "Growth Hormone--in vitro: growth hormone release inhibition in cultured rat pituitary cells", "assay_type": "cell-based", "conditions": "multiples or fractions of the effect of somatostatin (=1), 4 hours incubation", "description": "Rat pituitaries were isolated according to the procedures of Vale and Grant \"In vitro Pituitary Hormone Secretion Assay for Hypophysioprivic Substances\" in Methods in Enzymology. Vol.XXXVII,eds. O'Malley, B. W. and Hardman, J. G. (Academic Press, Inc., New York) pp. 5-93 (1975).\nAfter 4 days in culture, the cells were washed and incubated for 4 hours in Dulbecco modified Eagle's medium in the presence or absence of graded doses of each analog or somatostatin. The medium was then collected for subsequent growth hormone determination by a double antibody radioimmunoassay for rat growth hormone."}, "[2]": {"tested_on": "insulin", "experiment": "Insulin inhibition in vivo: portal vein insulin in anesthetized rats", "parameters": "species or system rat", "conditions": "multiples or fractions of the effect of somatostatin (=1), via external jugular vein, portal vein blood after 5 minutes", "description": "Analogs of somatostatin were compared to somatostatin in their ability to decrease the levels of portal vein glucagon and insulin in anesthetized rats. Male Sprague-Dawley rats (Charles River CD) weighing 160-200 g were anethetized with urethane (150 mg/100 g of body weight; Aldrich). Saline or peptides were administered via the external jugular vein. After 5 minutes, the portal vein was exposed, and blood was collected via syringe containing 3 mg of EDTA and placed in chilled tubes containing 100 μl of Trasylol (FBA Pharmaceuticals) for subsequent hormone analysis. Plasma levels of glucagon were determined by the method of Faloona and Unger, Methods of Hormone Radioimmunoassay, Jaffe and Behrman (Eds), Academic Press, New York, Vol. II, pp. 257-527 (1976), utilizing glucagon antisera 30K obtained from R. Unger (Dallas, Tx). Plasma levels of insulin were determined by a modification of the procedure of Herbert et al., J. Clin. Endocrinol. Metab., 25, 1375-1384 (1965)."}, "[3]": {"tested_on": "glucagon", "experiment": "Glucagon inhibition in vivo: portal vein glucagon in anesthetized rats", "parameters": "species or system rat", "conditions": "multiples or fractions of the effect of somatostatin (=1), via external jugular vein, portal vein blood after 5 minutes"}, "[4]": {"tested_on": "pentagastrin evoked gastric secretion", "experiment": "Inhibition of pentagastrin evoked gastric secretion in the chronic fistula dog", "assay_type": "in vivo", "conditions": "Dose 0.8 μg/ml./min., infusion 0-60 min, relative to placebo trial", "description": "Compounds were tested for their ability to inhibit pentagastrin evoked gastric secretion in the chronic fistula dog. Female beagle dogs with a chronic gastric fistula were given pentagastrin (2.5 μg./kg./hour, i.v. from -60 to 120 min.) and gastric outputs were collected via the fistula cannula. Samples were analyzed at 30 minute intervals for volume (ml.) and titratable acid (mEq/L) (Titration to pH 7 with 0.01 N NaOH); total acid output (mEq) was calculated as the production of output volume and acid concentration. Test compounds were infused at a constant rate from 0 to 60 minutes. Data have been expressed as percent change of total acid output relative to a placebo trial in the same animals."}}, "note": "At least one peptide structure holds a part that was inferred or is arguable (an end, a ring closure or a residue). Where a SMILES comes first, the peptide text is derived from it.", "data": [{"smiles": "C[C@@H](O)[C@@H]1NC(=O)[C@H](CCC(F)CN)NC(=O)[C@@H](Cc2c[nH]c3ccccc23)NC(=O)[C@H](Cc2ccccc2)NC(=O)[C@@H]2CCCN2C(=O)[C@H](Cc2ccccc2)NC1=O", "note": "(stereo partly drawn) [cyclo (Pro-Phe-D-Trp-δ-F-Lys-Thr-Phe)] (HELM PEPTIDE1{F.P.F.[dW].[NCC(F)CC[C@H](N[*:1])C(=O)[*:2]].T}$PEPTIDE1,PEPTIDE1,1:R1-6:R2$$$V2.0)", "values": [{"measurement": "Growth Hormone Release Inhibition In Vitro", "setting": "[1]", "result": 2.25}, {"measurement": "Insulin Inhibition In Vivo", "setting": "[2]", "result": 2.10}, {"measurement": "Glucagon Inhibition In Vivo", "setting": "[3]", "result": 2.57}, {"measurement": "Gastric Secretion % Inhibition Acid Concentration 0-30", "setting": "[4]; interval 0-30 min", "result": 28, "unit": "%"}, {"measurement": "Gastric Secretion % Inhibition Vol. 0-30", "setting": "[4]; interval 0-30 min", "result": 93, "unit": "%"}, {"measurement": "Gastric Secretion % Inhibition Acid Concentration 30-60", "setting": "[4]; interval 30-60 min", "result": 22, "unit": "%"}, {"measurement": "Gastric Secretion % Inhibition Vol. 30-60", "setting": "[4]; interval 30-60 min", "result": 94, "unit": "%"}, {"measurement": "Gastric Secretion % Inhibition Acid Concentration 60-90", "setting": "[4]; interval 60-90 min", "result": 19, "unit": "%"}, {"measurement": "Gastric Secretion % Inhibition Vol. 60-90", "setting": "[4]; interval 60-90 min", "result": -52, "unit": "%"}, {"measurement": "Gastric Secretion % Inhibition Acid Concentration 90-120", "setting": "[4]; interval 90-120 min", "result": -2, "unit": "%"}, {"measurement": "Gastric Secretion % Inhibition Vol. 90-120", "setting": "[4]; interval 90-120 min", "result": -172, "unit": "%"}]}]}
